# The exact form of at least one protein or probe is not confirmed. At least one verdict was read from the data and is not stated in words by the source.
# By UniProt entry, the sequences of proteins in these tests, tags left out. Residues count along the entry.
# UniProt Q05066, 57-141 Y127A: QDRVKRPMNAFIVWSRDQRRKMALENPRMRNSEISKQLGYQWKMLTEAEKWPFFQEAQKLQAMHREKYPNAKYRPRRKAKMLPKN
# Target: SRY HMG box Y72A Y127A (human) (UniProt Q05066)
# Test: steady-state FRET; stopped-flow FRET
# Conditions: faster dissociation, features similar to Y72C/Y72H; FRET: 10 mM potassium phosphate, 10 mM Tris-HCl, 140 mM KCl, pH 8.0, 15 and 37 C, 25 nM DNA (Kd); sf-FRET 1 uM complex + 20 uM unlabelled DNA at 10, 15, 25, 37 C; recombinant protein; residues 57-141
sequence,measurement,value
"TCGGTGATTGTTCAG (double strand) [15-bp SRY site, FRET-labelled]",binding result,binds
